Measurements: patent US20110105733A1 (Ablynx, published 2011)
Results are given in words; binding and its absence hold for the method and conditions named. Some binding calls cover weakened binding; strength is not graded here.

Sequences of proteins named here, by UniProt entry; tags and fusion partners are left off. A change or cut given only in a name is not applied to a line headed by its entry. Residues count along the entry.
UniProt P46531, residues 19-526: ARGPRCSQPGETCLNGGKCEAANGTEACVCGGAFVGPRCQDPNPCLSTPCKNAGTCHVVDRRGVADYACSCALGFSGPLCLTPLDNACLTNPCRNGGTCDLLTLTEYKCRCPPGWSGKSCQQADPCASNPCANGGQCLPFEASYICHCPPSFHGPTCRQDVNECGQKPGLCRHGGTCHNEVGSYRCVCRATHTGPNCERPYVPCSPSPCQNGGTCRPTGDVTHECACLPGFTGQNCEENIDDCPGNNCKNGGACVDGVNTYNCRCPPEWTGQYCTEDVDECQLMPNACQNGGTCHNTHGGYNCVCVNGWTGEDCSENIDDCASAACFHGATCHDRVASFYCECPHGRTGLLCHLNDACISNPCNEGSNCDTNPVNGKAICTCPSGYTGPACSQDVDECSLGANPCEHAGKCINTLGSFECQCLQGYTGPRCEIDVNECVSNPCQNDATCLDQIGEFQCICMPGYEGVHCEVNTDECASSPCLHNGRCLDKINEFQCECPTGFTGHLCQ
UniProt Q63722, residues 34-1067: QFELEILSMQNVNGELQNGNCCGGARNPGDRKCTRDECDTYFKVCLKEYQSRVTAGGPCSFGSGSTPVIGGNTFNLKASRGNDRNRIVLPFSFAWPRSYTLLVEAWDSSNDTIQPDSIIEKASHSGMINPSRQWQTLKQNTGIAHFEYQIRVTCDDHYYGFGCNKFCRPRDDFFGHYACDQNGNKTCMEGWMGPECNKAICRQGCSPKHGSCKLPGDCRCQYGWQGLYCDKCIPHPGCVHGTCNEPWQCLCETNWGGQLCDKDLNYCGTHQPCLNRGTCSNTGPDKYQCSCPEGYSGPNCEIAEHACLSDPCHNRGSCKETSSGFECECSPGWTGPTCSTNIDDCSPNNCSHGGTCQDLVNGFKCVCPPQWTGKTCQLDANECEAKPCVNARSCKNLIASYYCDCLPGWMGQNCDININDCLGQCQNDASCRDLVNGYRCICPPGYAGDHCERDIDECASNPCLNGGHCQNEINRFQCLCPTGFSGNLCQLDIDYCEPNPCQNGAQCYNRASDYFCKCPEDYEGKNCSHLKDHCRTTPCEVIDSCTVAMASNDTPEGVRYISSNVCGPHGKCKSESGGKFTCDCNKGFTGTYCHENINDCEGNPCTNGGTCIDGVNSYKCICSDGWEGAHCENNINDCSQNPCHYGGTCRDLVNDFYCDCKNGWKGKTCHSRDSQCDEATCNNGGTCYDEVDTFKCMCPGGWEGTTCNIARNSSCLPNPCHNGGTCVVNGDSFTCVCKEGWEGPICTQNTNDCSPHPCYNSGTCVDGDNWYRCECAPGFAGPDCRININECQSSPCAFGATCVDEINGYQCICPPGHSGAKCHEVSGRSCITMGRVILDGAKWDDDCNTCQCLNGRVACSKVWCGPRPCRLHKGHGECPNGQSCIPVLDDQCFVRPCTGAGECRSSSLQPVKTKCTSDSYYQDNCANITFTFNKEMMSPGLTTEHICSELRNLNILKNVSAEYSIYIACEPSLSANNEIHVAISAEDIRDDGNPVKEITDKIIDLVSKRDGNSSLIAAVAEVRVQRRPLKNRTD

Assays:
[1] = target: recombinant human Notch-1/Fc Chimera (R&D Systems Cat No 3647-TK) (human) (UniProt P46531); assay: ELISA: rhNotch-1/hFc coated at 5 ug/mL, 0.3 ug/mL biotinylated rrJagged-1 without competitor, detection by streptavidin-PO, OD 490 nm
[2] = target: recombinant human Notch-1/Fc Chimera (R&D Systems Cat No 3647-TK) (human) (UniProt P46531); assay: competition ELISA on coated rhNotch-1/hFc, competitor of biot-Jagged-1 (legend of FIG. 3)
[3] = target: recombinant human Notch-1/Fc Chimera (R&D Systems Cat No 3647-TK) (human) (UniProt P46531); assay: competition ELISA: rhDLL4 coated at 5 ug/mL, series of non-biotinylated Jagged-1 mixed with 0.2 ug/mL rhNotch-1/hFc, detection by anti-hFc-HRP, OD 490 nm; competitor: coated DLL4
[4] = target: recombinant human Notch-1/Fc Chimera (R&D Systems Cat No 3647-TK) (human) (UniProt P46531); assay: competition ELISA: rhNotch-1/hFc coated at 5 ug/mL, series of non-biotinylated Jagged-1 mixed with 0.3 ug/mL biotinylated rrJagged-1 (the competitor), detection by streptavidin-PO, OD 490 nm

Substance	binding [1]	binding [2]	binding [3]	binding [4]
biotinylated rrJagged-1 (from UniProt Q63722 34-1067) (ligand)	binds	–	–	–
rat Jagged-1 (rrJagged-1, R&D Systems Cat #599-JG) (from UniProt Q63722 34-1067) (ligand)	–	binds	binds	binds
